Assay results from PubChem BioAssay AID248 (DTP/NCI, 2004).
The list shows only some results of the screen, not a fair sample: it is rich in T/C values a quarter to a half above the control, in often repeated tests (any T/C) and in doses without a T/C. Other doses and runs of a compound stand elsewhere. T/C gives the treated animals as a percentage of the vehicle group. Some doses have a count of surviving animals in place of a T/C: the source files T/C as zero there, which appears to mark a toxic dose or a test without result, not a measured value. Some doses without a T/C left all or most animals alive at the check, yet need not have been tolerated: the source hardly ever lists a survival T/C far under the control, and the zero likely stands for such cases as well. Survivors were counted at the toxicity check, usually on the fifth day, unless a day is given; later deaths do not show. Schedules are NCI's codes, read here as Q, the interval in days (D) or hours (H), X, the number of doses. Some schedule codes hold Z or #, which are not explained here. Some molecules as drawn cover several salts, stereoisomers or complexes of the source; a dose is that of the sample tested. Some entries were tested several times; the values are given in rising order. For survival time, the PubChem record calls one and a half times the control and up active, and a quarter to a half above the control has no call in these data; cut-offs in other NCI protocols can differ. Some T/C values are followed by the survivors on the day toxicity was checked, most often the fifth; without a count, all were alive then.

Tested on: L1210 leukemia ip in BDF1 mice, survival T/C
Test: NCI In Vivo Anticancer Drug Screen. Data for tumor model L1210 Leukemia (intraperitoneal) in B6D2F1 (BDF1) mice
Settings: T/C endpoint: mean survival time, higher T/C = longer survival
[1] = dose: 28.5 mg/kg/injection, schedule: Q01DX Z (ip), vehicle: carboxymethylcellulose (CMC)
[2] = dose: 140.0 mg/kg/injection, schedule: Q01DX001 (ip), vehicle: saline
[3] = dose: 200.0 mg/kg/injection, schedule: Q01DX009 (ip), vehicle: saline with Tween-80
[4] = dose: 400.0 mg/kg/injection, schedule: Q01DX009 (ip), vehicle: saline with Tween-80
[5] = dose: 200.0 mg/kg/injection, schedule: Q04DX003 (ip), vehicle: water
[6] = dose: 400.0 mg/kg/injection, schedule: Q04DX003 (ip), vehicle: water
[7] = dose: 400.0 mg/kg/injection, schedule: Q04DX003 (ip), vehicle: saline
[8] = dose: 400.0 mg/kg/injection, schedule: Q01DX001 (ip), vehicle: saline
[9] = dose: 100.0 mg/kg/injection, schedule: Q01DX009 (ip), vehicle: saline with Tween-80

In the case of `CCOC(=O)NP(=O)(N1CC1)N1CC1`, the T/C (dose: 2.5 mg/kg/injection, schedule: Q#A X Z (ip), vehicle: saline) is reported as 140 % of control, the T/C (dose: 3.0 mg/kg/injection, schedule: Q01DX Z (ip), vehicle: carboxymethylcellulose (CMC)) is reported as 125 % of control and the T/C (dose: 4.4 mg/kg/injection, schedule: Q01DX001 (ip), vehicle: saline) is reported as 135 % of control. The T/C (dose: 4.75 mg/kg/injection, schedule: Q01DX Z (ip), vehicle: carboxymethylcellulose (CMC)) was 131 % of control, the T/C (dose: 5.0 mg/kg/injection, schedule: Q01DX Z (im), vehicle: saline) was 134 % of control and the T/C (dose: 5.0 mg/kg/injection, schedule: Q01DX Z (ip), vehicle: saline) was 137 % of control. For the same compound, the T/C (dose: 5.0 mg/kg/injection, schedule: Q#A X Z (ip), vehicle: saline) was 149 % of control, the T/C (dose: 6.0 mg/kg/injection, schedule: Q01DX Z (ip), vehicle: carboxymethylcellulose (CMC)) was 148 % of control and the T/C (dose: 8.7 mg/kg/injection, schedule: Q01DX001 (ip), vehicle: saline) was 127 % of control. For the same compound, the T/C (dose: 10.0 mg/kg/injection, schedule: Q01DX Z (sc), vehicle: saline) was 141 % of control, the T/C (dose: 12.0 mg/kg/injection, schedule: Q01DX Z (ip), vehicle: carboxymethylcellulose (CMC)) was 138 % of control and the T/C (dose: 17.5 mg/kg/injection, schedule: Q01DX001 (ip), vehicle: saline, evaluated on day 30) was 118 and 123 % of control. For the same compound, the T/C (dose: 17.5 mg/kg/injection, schedule: Q01DX001 (ip), vehicle: saline, run until all animals had died) was 138 and 156 % of control, the T/C (dose: 17.5 mg/kg/injection, schedule: Q07DX003 (ip), vehicle: saline) was 136 % of control and the T/C (dose: 19.0 mg/kg/injection, schedule: Q01DX Z (ip), vehicle: carboxymethylcellulose (CMC)) was 113, 147, 156, 196 % of control. The T/C (dose: 20.0 mg/kg/injection, schedule: Q01DX Z (ip), vehicle: saline) was 126 % of control [5 of 6 alive], the T/C (dose: 20.0 mg/kg/injection, schedule: Q01DX Z (oral), vehicle: saline) was 136 % of control and the survivor count (dose: 20.0 mg/kg/injection, schedule: Q#A X Z (ip), vehicle: saline) was 2 of 6. The T/C [1] was 126 % of control, the survivor count [1] was 6 of 10 and the T/C (dose: 35.0 mg/kg/injection, schedule: Q01DX001 (ip), vehicle: saline, evaluated on day 30) was 143 and 253 % of control. For the same compound, the T/C (dose: 35.0 mg/kg/injection, schedule: Q01DX001 (ip), vehicle: saline, run until all animals had died) was 144 and 165 % of control, the T/C (dose: 35.0 mg/kg/injection, schedule: Q07DX001 (ip), vehicle: saline) was 138 % of control and the survivor count (dose: 38.0 mg/kg/injection, schedule: Q01DX Z (ip), vehicle: carboxymethylcellulose (CMC)) was 4 of 10. The T/C (dose: 40.0 mg/kg/injection, schedule: Q01DX006 (iv), vehicle: saline) was 134 % of control [5 of 6 alive], the T/C (dose: 40.0 mg/kg/injection, schedule: Q01DX Z (sc), vehicle: saline) was 149 % of control and the survivor count (dose: 47.5 mg/kg/injection, schedule: Q01DX Z (ip), vehicle: carboxymethylcellulose (CMC)) was 0 of 10 and 9 of 10. The survivor count (dose: 48.0 mg/kg/injection, schedule: Q01DX Z (ip), vehicle: carboxymethylcellulose (CMC)) was 6 of 6, the survivor count (dose: 60.0 mg/kg/injection, schedule: Q03DX007 (ip), vehicle: saline) was 5 of 6 and the T/C (dose: 70.0 mg/kg/injection, schedule: Q01DX001 (ip), vehicle: saline, evaluated on day 30) was 223 and 239 % of control. The T/C (dose: 70.0 mg/kg/injection, schedule: Q01DX001 (ip), vehicle: saline, run until all animals had died) was 193 and 218 % of control [4 of 6 alive], the survivor count (dose: 80.0 mg/kg/injection, schedule: Q01DX006 (iv), vehicle: saline) was 3 of 6 and the survivor count (dose: 80.0 mg/kg/injection, schedule: Q01DX Z (oral), vehicle: saline) was 3 of 6. For the same compound, the survivor count (dose: 96.0 mg/kg/injection, schedule: Q01DX Z (ip), vehicle: carboxymethylcellulose (CMC)) was 6 of 6, the survivor count (dose: 120.0 mg/kg/injection, schedule: Q03DX007 (ip), vehicle: saline) was 2 of 6 and the T/C [2] was 102 % of control. For the same compound, the survivor count [2] was 1 of 6 and 2 of 6, the survivor count (dose: 140.0 mg/kg/injection, schedule: Q07DX001 (ip), vehicle: saline) was 3 of 6 and the survivor count (dose: 160.0 mg/kg/injection, schedule: Q01DX006 (iv), vehicle: saline) was 4 of 6. For the same compound, the survivor count (dose: 160.0 mg/kg/injection, schedule: Q01DX Z (oral), vehicle: saline) was 1 of 6, the survivor count (dose: 160.0 mg/kg/injection, schedule: Q01DX Z (sc), vehicle: saline) was 4 of 6 and the survivor count (dose: 280.0 mg/kg/injection, schedule: Q01DX001 (ip), vehicle: saline) was 1 of 6. For the same compound, the survivor count (dose: 280.0 mg/kg/injection, schedule: Q07DX001 (ip), vehicle: saline) was 2 of 6 and the survivor count (dose: 320.0 mg/kg/injection, schedule: Q01DX Z (sc), vehicle: saline) was 5 of 6.
`CC(C)=CCC/C(C)=C\CCl` was tested, and the survivor count [3] was 6 of 6 and the survivor count [4] was 0 of 6.
`CCC(C)NCCOC(=O)C(c1ccccc1)c1ccccc1` (centres undefined) was tested, and the survivor count (dose: 150.0 mg/kg/injection, schedule: Q01DX001 (ip), vehicle: other) was 2 of 6 and the survivor count (dose: 300.0 mg/kg/injection, schedule: Q01DX001 (ip), vehicle: other) was 0 of 6.
For `CS(=O)c1ncc2cnccn12` (centres undefined), the survivor count [5] was 3 of 6, the survivor count (dose: 400.0 mg/kg/injection, schedule: Q01DX009 (ip), vehicle: water) was 0 of 6 and the survivor count [6] was 0 of 6.
In the case of `C1CNCOC1`, the survivor count [7] is reported as 2 of 6.
In the case of `Cc1ccc(NC(=O)Nc2cc(C)on2)c([N+](=O)[O-])c1`, the survivor count (dose: 200.0 mg/kg/injection, schedule: Q04DX003 (ip), vehicle: Klucel (hydroxypropylcellulose) (HPC)) is reported as 6 of 6 and the survivor count (dose: 400.0 mg/kg/injection, schedule: Q04DX003 (ip), vehicle: Klucel (hydroxypropylcellulose) (HPC)) is reported as 6 of 6.
For `CN(C)c1ccc(/C=C/c2ccnc3ccccc23)cc1`, the survivor count (dose: 80.0 mg/kg/injection, schedule: Q01DX009 (ip), vehicle: saline) was 3 of 6 and the survivor count [8] was 1 of 4.
In the case of `CC(C)(C)C(CCC(=O)O)CC(=O)O` (centres undefined), the survivor count [9] is reported as 6 of 6.
For `C[n+]1cc2ccccc2c2ccccc21`, the survivor count (dose: 50.0 mg/kg/injection, schedule: Q04DX003 (ip), vehicle: water) was 2 of 6, the survivor count (dose: 100.0 mg/kg/injection, schedule: Q04DX003 (ip), vehicle: saline) was 2 of 6 and the survivor count (dose: 100.0 mg/kg/injection, schedule: Q04DX003 (ip), vehicle: water) was 5 of 6. For the same compound, the survivor count (dose: 200.0 mg/kg/injection, schedule: Q04DX003 (ip), vehicle: saline) was 1 of 6, the survivor count [5] was 1 of 6 and the survivor count [7] was 0 of 6. The survivor count [6] was 1 of 6.
For `CC(C)(O)C(=O)N/N=C/c1ccc(Cl)cc1Cl`, the survivor count (dose: 50.0 mg/kg/injection, schedule: Q01DX009 (ip), vehicle: saline with Tween-80) was 2 of 6, the survivor count [9] was 1 of 6 and 2 of 6 and the survivor count [3] was 0 of 6. The survivor count [4] was 0 of 6.
For `C/C=C\S(=O)(=O)c1ccccc1`, the survivor count (dose: 100.0 mg/kg/injection, schedule: Q04DX002 (ip), vehicle: Klucel (hydroxypropylcellulose) (HPC)) was 0 of 3 and the survivor count (dose: 400.0 mg/kg/injection, schedule: Q04DX002 (ip), vehicle: Klucel (hydroxypropylcellulose) (HPC)) was 0 of 3.
`CC(=O)/C(=C(/C)OB(F)F)C(C)C` was tested, and the survivor count [8] was 0 of 6.
For `CCCC(=O)Nc1cc2c3c(c1)CCCN3CCC2`, the survivor count [9] was 2 of 6, the survivor count [3] was 0 of 6 and the survivor count [4] was 0 of 6.
